No constants are given. Whether binding was seen depends on the method and setting.
Key:
[1] = molecular target: human BTN3A2, isoform 1, on cells (human) (UniProt P78410); assay: flow cytometry, anti-BTN2A1 259 versus anti-BTN3A 103.2 on transfected NIH-3T3 cells
[2] = molecular target: T1, human BTN3A1, isoform 1, on cells (human, UniProt O00481 30-513); assay: as above
T1 construct: whole, on cells

Sequences of proteins named here, by UniProt entry; tags and fusion partners are left off. Residues count along the entry.
UniProt P78410, residues 30-334: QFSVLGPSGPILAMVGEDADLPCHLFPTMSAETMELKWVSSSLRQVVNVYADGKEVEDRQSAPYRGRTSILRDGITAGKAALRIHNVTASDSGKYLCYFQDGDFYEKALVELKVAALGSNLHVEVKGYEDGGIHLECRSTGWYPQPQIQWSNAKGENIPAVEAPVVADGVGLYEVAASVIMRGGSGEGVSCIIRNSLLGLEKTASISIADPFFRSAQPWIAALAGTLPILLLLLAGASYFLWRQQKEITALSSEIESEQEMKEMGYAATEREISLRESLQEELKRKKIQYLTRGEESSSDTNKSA
UniProt O00481, residues 30-513: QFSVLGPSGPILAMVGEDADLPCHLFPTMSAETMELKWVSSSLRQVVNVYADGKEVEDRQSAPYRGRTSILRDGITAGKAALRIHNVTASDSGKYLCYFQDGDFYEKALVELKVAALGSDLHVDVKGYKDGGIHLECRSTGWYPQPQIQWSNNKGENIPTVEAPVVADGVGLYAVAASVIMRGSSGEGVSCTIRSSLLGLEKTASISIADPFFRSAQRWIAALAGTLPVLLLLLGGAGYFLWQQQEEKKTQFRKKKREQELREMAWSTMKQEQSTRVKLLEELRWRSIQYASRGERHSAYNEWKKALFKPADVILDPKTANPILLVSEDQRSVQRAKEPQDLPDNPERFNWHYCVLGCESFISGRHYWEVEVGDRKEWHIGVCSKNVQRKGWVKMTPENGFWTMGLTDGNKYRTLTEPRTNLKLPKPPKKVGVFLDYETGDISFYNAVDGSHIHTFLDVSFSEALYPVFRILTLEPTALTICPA

binding [1]: no binding
binding [2]: no binding
B1: anti-BTN2A1 antibody 259 (antibody, V domains shown)
VH: EVQLLESGGGLVQPGGSLRLSCAASGFTFSSYAMQWVRQAPGKGLEWVSRIGPSGGGTMYADSVKGRFTISRDNSKNTLYLQMNSLRAEDMAVYYCARDLGGLSVLFDYWGQGTLVTVSS
VL: QSELTQPPSASETPGQRVTISCSGSSSNIGSNTVSWFQQLPGSAPRLLIYNDHRRPSGVPDRFSGSKSGTSASLVISGLQSQDEADYYCSAWDDSLNGVVFGGGTKLTVL
